We go through 23 molecules from PubChem BioAssay AID330 (DTP/NCI, 2004).

The structures appear in SMILES notation. The list is a part of this screen's results and no random one: it is rich in T/C values a quarter to a half above the control, in often repeated tests (any T/C) and in doses without a T/C. Other doses and runs of a compound stand elsewhere. T/C gives the treated animals as a percentage of the vehicle group. Some doses have a count of surviving animals in place of a T/C: the source holds a T/C of zero for them, seemingly a mark for toxic or unscored doses. Some survivor counts are full or nearly so, which does not show that the dose was tolerated: survival well below the control is almost never listed, so the zero probably covers shortened survival too. Counts of survivors are from the toxicity check (mostly the fifth day) where no day follows; animals may have died later. Schedule codes are those of the source, taken here to give the interval after Q, in days (D) or hours (H), and the number of doses after X. Where survival is the endpoint, the PubChem record calls one and a half times the control and up active, and a quarter to a half above the control has no call in these data; cut-offs in other NCI protocols can differ. Some T/C values carry the count of animals alive at the toxicity check (mostly the fifth day); where none is given, no animal had died by that day. Additions like (4×) give the number of equal values in this list. Some entries were tested several times; the values are given in rising order.

This experiment deals with P388 leukemia ip, CD2F1 mice, survival T/C. The experiment in a line: NCI In Vivo Anticancer Drug Screen. Data for tumor model P388 Leukemia (intraperitoneal) in CD2F1 (CDF1) mice. Conditions: T/C endpoint: median survival time, higher T/C = longer survival.
[1] abbreviates: dose: 400.0 mg/kg/injection, schedule: Q04DX002 (ip), vehicle: saline with Tween-80.
Where [2] appears, read: dose: 120.0 mg/kg/injection, schedule: Q01DX005 (ip), vehicle: Klucel (hydroxypropylcellulose) (HPC).
Setting [3] is: dose: 240.0 mg/kg/injection, schedule: Q01DX005 (ip), vehicle: Klucel (hydroxypropylcellulose) (HPC).
Setting [4] is: dose: 400.0 mg/kg/injection, schedule: Q04DX003 (ip), vehicle: saline with Tween-80.
[5] abbreviates: dose: 200.0 mg/kg/injection, schedule: Q01DX005 (ip), vehicle: saline with Tween-80.
Where [6] appears, read: dose: 5.0 mg/kg/injection, schedule: Q01DX009 (ip), vehicle: saline.
Where [7] appears, read: dose: 10.0 mg/kg/injection, schedule: Q01DX009 (ip), vehicle: saline.
Where [8] appears, read: dose: 3.0 mg/kg/injection, schedule: Q01DX009 (ip), vehicle: saline.

Consider `NC(N)=NO`, for which the T/C is 130 % of control (dose: 18.75 mg/kg/injection, schedule: Q01DX009 (ip), vehicle: saline) and 140 % of control (dose: 37.5 mg/kg/injection, schedule: Q01DX009 (ip), vehicle: saline). Besides, the survivor count by setting is: (dose: 300.0 mg/kg/injection, schedule: Q01DX009 (ip), vehicle: saline) 10 of 10; (dose: 600.0 mg/kg/injection, schedule: Q01DX009 (ip), vehicle: saline) 1 of 10.
As for `C1CCC2(CC1)CSSC2`, the survivor count is, setting by setting: (dose: 25.0 mg/kg/injection, schedule: Q04DX002 (ip), vehicle: saline with Tween-80) 0 of 6; (dose: 100.0 mg/kg/injection, schedule: Q04DX002 (ip), vehicle: saline with Tween-80) 0 of 6; (dose: 200.0 mg/kg/injection, schedule: Q04DX002 (ip), vehicle: saline with Tween-80) 0 of 6; under setting [1], 0 of 6.
With `CCCCCCCCCC(O)CCCCCC` (centres undefined), the survivor count (dose: 300.0 mg/kg/injection, schedule: Q01DX009 (ip), vehicle: other) is given as 2 of 6.
`S=C=[N][Sn]([N]=C=S)([c]1ccccc1)[c]1ccccc1.c1ccc2nc(-c3ccc4ccccc4n3)ccc2c1`: the T/C (dose: 7.5 mg/kg/injection, schedule: Q01DX005 (ip), vehicle: Klucel (hydroxypropylcellulose) (HPC)) is 125 % of control [5 of 6 alive] (2×); the T/C (dose: 15.0 mg/kg/injection, schedule: Q01DX005 (ip), vehicle: Klucel (hydroxypropylcellulose) (HPC)) was 129 [5 of 6 alive] and 135 % of control [5 of 6 alive]. Also, the survivor count (dose: 60.0 mg/kg/injection, schedule: Q01DX005 (ip), vehicle: Klucel (hydroxypropylcellulose) (HPC)) was 0 of 6; the survivor count under setting [2] is recorded as 0 of 6; the survivor count under setting [3] is listed as 0 of 6.
Consider `CCCN(CCC)CCSC(=S)NCCOC`, for which the survivor count under setting [4] is given as 1 of 6.
On to `COc1cc(C(=O)c2cc3c(cc2C)OCO3)cc(OC)c1OC`, for which the T/C (dose: 100.0 mg/kg/injection, schedule: Q01DX009 (ip), vehicle: Klucel (hydroxypropylcellulose) (HPC)) was 145 % of control.
Turning to `C[Si]1(C)CC[Si](C)(C)S1`, the survivor count under setting [5] is recorded as 0 of 5.
For `CC1CCC2(OC1)OC1C(O)C3C4CCC5CC(OC6OC(CO)C(OC7OC(CO)C(O)C(OC8OCC(O)C(O)C8O)C7OC7OC(CO)C(O)C(OC8OC(CO)C(O)C(O)C8O)C7O)C(O)C6O)C(O)CC5(C)C4CCC3(C)C1C2C` (centres undefined), the survivor count runs as follows: under setting [6], 10 of 10; under setting [7], 10 of 10; (dose: 20.0 mg/kg/injection, schedule: Q01DX009 (ip), vehicle: saline) 10 of 10.
Regarding `O=C1NC(N(CCCl)CCCl)=NC1(c1ccccc1)c1ccccc1`, under setting [1], the survivor count is on record as 3 of 6.
For `O=C1Nc2ccc([N+](=O)[O-])cc2/C1=C/C(=O)c1ccccc1`, the survivor count (dose: 25.0 mg/kg/injection, schedule: Q01DX009 (ip), vehicle: saline with Tween-80) is 6 of 6.
With `NC(=O)Nc1ccc(/C=C\c2ccnc3ccccc23)cc1`, the survivor count by setting is: (dose: 100.0 mg/kg/injection, schedule: Q04DX003 (ip), vehicle: saline with Tween-80) 6 of 6; (dose: 200.0 mg/kg/injection, schedule: Q04DX003 (ip), vehicle: saline with Tween-80) 2 of 6; under setting [4], 0 of 6.
Turning to `N#C/C(=N\Nc1ccc(F)cc1)C(=O)C1CC1`, the survivor count under setting [2] was 0 of 6 and the survivor count under setting [3] is recorded as 0 of 6.
As for `NC(=S)NN=C(C1CC1)C1CC1`, the survivor count runs as follows: (dose: 25.0 mg/kg/injection, schedule: Q01DX005 (ip), vehicle: Klucel (hydroxypropylcellulose) (HPC)) 0 of 6; (dose: 50.0 mg/kg/injection, schedule: Q01DX005 (ip), vehicle: Klucel (hydroxypropylcellulose) (HPC)) 0 of 6; (dose: 100.0 mg/kg/injection, schedule: Q01DX005 (ip), vehicle: Klucel (hydroxypropylcellulose) (HPC)) 0 of 6; (dose: 200.0 mg/kg/injection, schedule: Q01DX005 (ip), vehicle: Klucel (hydroxypropylcellulose) (HPC)) 0 of 6.
As for `C=CCNC(=S)N/N=C(/c1ccccn1)C(C)C`, the survivor count under setting [5] is listed as 2 of 6.
Turning to `ClC1=C(Cl)[C@@]2(Cl)[C@H]3[C@H]4C[C@H]([C@@H]5O[C@H]45)[C@H]3[C@@]1(Cl)C2(Cl)Cl`, the survivor count (dose: 25.0 mg/kg/injection, schedule: Q04DX003 (ip), vehicle: Klucel (hydroxypropylcellulose) (HPC)) was 6 of 6 and the survivor count (dose: 50.0 mg/kg/injection, schedule: Q04DX003 (ip), vehicle: Klucel (hydroxypropylcellulose) (HPC)) is 2 of 6.
As for `CC(=O)OC1CC2CCC3C(CCC4(C)C3CC([N+]3(C)CCCCC3)C4OC(C)=O)C2(C)CC1[N+]1(C)CCCCC1` (centres undefined), the survivor count (dose: 0.1 mg/kg/injection, schedule: Q01DX009 (ip), vehicle: saline) was 5 of 6; the survivor count (dose: 0.2 mg/kg/injection, schedule: Q01DX009 (ip), vehicle: saline) is given as 1 of 6; the survivor count (dose: 0.4 mg/kg/injection, schedule: Q01DX009 (ip), vehicle: saline) was 0 of 6; the survivor count (dose: 0.75 mg/kg/injection, schedule: Q01DX009 (ip), vehicle: saline) is 0 of 6; the survivor count (dose: 1.5 mg/kg/injection, schedule: Q01DX009 (ip), vehicle: saline) was 0 of 6; the survivor count under setting [8] is recorded as 0 of 6. Further, the survivor count by setting is: (dose: 12.5 mg/kg/injection, schedule: Q01DX009 (ip), vehicle: saline) 0 of 6; (dose: 25.0 mg/kg/injection, schedule: Q01DX009 (ip), vehicle: saline) 0 of 6; (dose: 50.0 mg/kg/injection, schedule: Q01DX009 (ip), vehicle: saline) 0 of 6.
Take `Nc1nc(-c2ccccn2)cc2ccccc12`: the survivor count (dose: 240.0 mg/kg/injection, schedule: Q01DX005 (ip), vehicle: saline with Tween-80) is 0 of 6.
For the molecule `Oc1ccc(Nc2ccnc3cc(Cl)ccc23)cc1CN(CCCl)CCCl`, the T/C (dose: 1.1 mg/kg/injection, schedule: Q01DX009 (ip), vehicle: saline) is 137 % of control; the T/C (dose: 1.25 mg/kg/injection, schedule: Q01DX009 (ip), vehicle: saline) was 139 % of control; the T/C (dose: 1.7 mg/kg/injection, schedule: Q01DX009 (ip), vehicle: saline) was 144 % of control; the T/C (dose: 3.75 mg/kg/injection, schedule: Q01DX009 (ip), vehicle: saline) is 144 % of control; the T/C under setting [6] was 130 % of control. Moreover, the survivor count under setting [7] is 5 of 6.
With `C1=CN2C3=NCCN3C3=NCCN3C2c2ccccc21` (centres undefined), the survivor count reads like this: (dose: 100.0 mg/kg/injection, schedule: Q04DX002 (ip), vehicle: Klucel (hydroxypropylcellulose) (HPC)) 0 of 6; (dose: 200.0 mg/kg/injection, schedule: Q04DX002 (ip), vehicle: Klucel (hydroxypropylcellulose) (HPC)) 0 of 6; (dose: 400.0 mg/kg/injection, schedule: Q04DX002 (ip), vehicle: Klucel (hydroxypropylcellulose) (HPC)) 0 of 6.
Take `C=C[P+](c1ccccc1)(c1ccccc1)c1ccccc1`: the T/C under setting [8] was 134 % of control.
Take `C=C=C(C)C(C(C)C)N1CCCC1` (centres undefined): the survivor count (dose: 200.0 mg/kg/injection, schedule: Q01DX005 (ip), vehicle: saline) is on record as 0 of 6.
Turning to `Cc1cc(-c2ccc(N=Nc3c(C)nn(-c4ccc(S(=O)(=O)O)cc4)c3O)c(C)c2)ccc1N=Nc1ccc(O)c(C(=O)O)c1`, the survivor count is listed as 6 of 6 (dose: 50.0 mg/kg/injection, schedule: Q01DX009 (ip), vehicle: saline with Tween-80); 6 of 6 (dose: 100.0 mg/kg/injection, schedule: Q01DX009 (ip), vehicle: saline with Tween-80); 1 of 6 (dose: 200.0 mg/kg/injection, schedule: Q01DX009 (ip), vehicle: saline with Tween-80).
Take `CC(c1ccccc1)C1(C)NC(=O)NC1=O` (centres undefined): the survivor count under setting [4] is reported as 1 of 6.
